Reference: PubChem BioAssay AID1508588 (Peter MacCallum Cancer Centre, 2020)

Screen: 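Which gene losses make BRAF-mutant melanoma cells more responsive to vemurafenib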 (primary screen)
Cells: human WM266.4 melanoma cells (BRAF V600 mutant)
Reagents: siRNA pool against human genes, 40 nM
Timing: 96 h from transfection to read-out
Treatment: vemurafenib 300 nM (about IC25), added 48 h after transfection, for 48 h; comparison arm got DMSO vehicle only
Read-out: 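Ratios to non-targeting siRNA for cell gain, counted as DAPI nuclei after minus before drug and averaged over two replicates, and for absorbance-read medium lactate per cell; both binned into fold-change classes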
Direction: cell gain with vemurafenib: higher = more cell gain than with non-targeting siRNA; lactate per cell with vemurafenib: higher = more lactate made per cell
Hit rule: 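a knock-down counts as enhancing when its fold-change classes with vehicle and with vemurafenib, taken together, show a stronger drug effect on cell gain or lactate per cell; exact class pairs not stated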
Meaning of the calls: active = enhances vemurafenib effect; inactive = no enhancement seen
Shown is an unselected part of about 18,000 deposited reagents. 790 of all reagents (4.4%) count as active. 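Calls rest on a combination of fold-change classes in drug and vehicle arms, not all shown here.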 The numbers tell different reagents against one gene apart. No sequences are given here.

The first 7 entries, to show the layout:
| gene symbol | pool no. | cell gain with vemurafenib | lactate per cell with vemurafenib | outcome |
| --- | --- | --- | --- | --- |
| DGLUCY | 1 | 0.39 | 0.85 | inactive |
| AP2A1 | 1 | 0.07 | 0.6 | inactive |
| KIAA0319 | 1 | 0.54 | 1.25 | inactive |
| RNF44 | 1 | 1 | 0.8 | inactive |
| CHRNA4 | 1 | 0.57 | 1.11 | inactive |
| SLC31A2 | 1 | 0.45 | 1.35 | inactive |
| NME3 | 1 | 0.58 | 1.25 | inactive |

The list itself, from the first entry:
| gene symbol | pool no. | cell gain with vemurafenib | lactate per cell with vemurafenib | outcome |
| --- | --- | --- | --- | --- |
| DGLUCY | 1 | 0.39 | 0.85 | inactive |
| AP2A1 | 1 | 0.07 | 0.6 | inactive |
| KIAA0319 | 1 | 0.54 | 1.25 | inactive |
| RNF44 | 1 | 1 | 0.8 | inactive |
| CHRNA4 | 1 | 0.57 | 1.11 | inactive |
| SLC31A2 | 1 | 0.45 | 1.35 | inactive |
| NME3 | 1 | 0.58 | 1.25 | inactive |
| CPLANE2 | 1 | 0.31 | 1.7 | inactive |
| TRIM15 | 1 | 0.95 | 0.79 | inactive |
| MBLAC1 | 1 | 1.06 | 0.93 | inactive |
| H2BC3 | 1 | 0.56 | 0.64 | inactive |
| CERS4 | 1 | 0.51 | 0.48 | active |
| RAB11FIP2 | 1 | 0.54 | 1.48 | inactive |
| RWDD3 | 1 | 0.83 | 0.5 | inactive |
| CNNM1 | 1 | 0.73 | 1.09 | inactive |
| HAX1 | 1 | 0.4 | 1.36 | inactive |
| EXOG | 1 | 0.4 | 0.68 | inactive |
| SUPT16H | 1 | 0.66 | 0.69 | active |
| ELOA | 1 | 1.18 | 0.57 | inactive |
| MPP3 | 1 | 0.47 | 0.61 | inactive |
| GCSH | 1 | 0.75 | 1.47 | inactive |
| ZC3H15 | 1 | 0.17 | 0.78 | inactive |
| PPARGC1B | 1 | 0.38 | 1.19 | inactive |
| SIMC1 | 1 | 0.61 | 1.12 | inactive |
| MOV10 | 1 | 0.29 | 0.9 | inactive |
| BTBD10 | 1 | 0.3 | 0.35 | active |
| NIFK | 1 | 0.08 | 2.28 | inactive |
| FBP2 | 1 | 0.8 | 0.78 | inactive |
| MORF4 | 1 | 0.43 | 1.12 | inactive |
| ARMC5 | 1 | 0.45 | 1.67 | inactive |
| OR4K15 | 1 | 0.11 | 0.79 | active |
| SAAL1 | 1 | 0.85 | 0.71 | inactive |
| TP53TG3 | 1 | 0.17 | 0.26 | inactive |
| KIF1C | 1 | 0.31 | 1.05 | inactive |
| GAS6 | 1 | 0.88 | 1.29 | inactive |
| FAM169BP | 1 | 0.67 | 0.54 | inactive |
| TOX4 | 1 | 0.25 | 2.27 | inactive |
| TNFSF15 | 1 | 0.1 | 1.11 | inactive |
| PHETA1 | 1 | 0.45 | 0.26 | inactive |
| CRHBP | 1 | 0.4 | 1.6 | inactive |
| GPR119 | 1 | 0.72 | 0.82 | inactive |
| SNX9 | 1 | 0.56 | 0.8 | inactive |
| HLA-L | 1 | 0.43 | 0.9 | inactive |
| OR13A1 | 1 | 0.52 | 1.15 | inactive |
| CSGALNACT2 | 1 | 0.44 | 1.16 | inactive |
| ZNF543 | 1 | 0.52 | 0.32 | inactive |
| PIGK | 1 | 0.42 | 0.27 | inactive |
| SHROOM2 | 1 | 0.54 | 0.95 | inactive |
| NCKAP1L | 1 | -0.07 | 0.82 | inactive |
| FSIP2 | 1 | 0.88 | 0.32 | inactive |
| FSIP2 | 2 | 0.09 | 1.67 | inactive |
| AKR1C3 | 1 | 0.3 | 0.92 | inactive |
| GPR3 | 1 | 0.35 | 1.5 | inactive |
| RUVBL1 | 1 | 0.13 | 0.98 | inactive |
| ZNF106 | 1 | 0.24 | 2.21 | inactive |
| CFAP184 | 1 | 0.4 | 0.82 | inactive |
| KCNC3 | 1 | 0.31 | 1.84 | inactive |
| PSMA4 | 1 | 0.01 | 1.65 | inactive |
| UBXN2A | 1 | 0.72 | 0.82 | inactive |
| SCLT1 | 1 | 0.66 | 0.44 | active |
| LBHD1 | 1 | 0.16 | 2.31 | inactive |
| DPH6 | 1 | 0.97 | 0.55 | inactive |
| DNAJA2 | 1 | 0.65 | 0.57 | inactive |
| GGA3 | 1 | 0.24 | 1.02 | inactive |
| AADACL2 | 1 | 0.42 | 1.22 | inactive |
| SPRING1 | 1 | 1.36 | 0.64 | inactive |
| KRTAP4-4 | 1 | 0.6 | 0.68 | inactive |
| RNF213 | 1 | 0.58 | 1.13 | inactive |
| RNF213 | 2 | 0.68 | 0.82 | inactive |
| TOX3 | 1 | 0.5 | 1.58 | inactive |
| SYCE1 | 1 | 0.9 | 0.55 | inactive |
| ST6GALNAC6 | 1 | 1.24 | 0.67 | inactive |
| WAC | 1 | 0.45 | 1.53 | inactive |
| CCNDBP1 | 1 | 0.3 | 1.06 | inactive |
| OR2AG2 | 1 | 0.36 | 1.07 | inactive |
| NOX3 | 1 | 0.48 | 1.56 | inactive |
| KIAA1755 | 1 | 0.37 | 1.84 | inactive |
| CACNA1A | 1 | 0.08 | 1.29 | inactive |
| ORM1 | 1 | 0.42 | 0.97 | inactive |
| CALCR | 1 | 0.8 | 0.64 | inactive |
| OTUD7A | 1 | 0.14 | 1.11 | inactive |
| OR5M9 | 1 | 0.77 | 0.72 | inactive |
| FAM174A | 1 | 0.61 | 0.5 | inactive |
| DLG4 | 1 | 0.77 | 0.53 | inactive |
